Measurements: the supplement of paper PMC10849652
The list shows a part of the results.

Chains of the proteins cited; added tags and fusions are not shown. Lines headed by an entry give the natural chain unless they say otherwise; changes in a name come on top.
UniProt O43353, whole entry, looked up: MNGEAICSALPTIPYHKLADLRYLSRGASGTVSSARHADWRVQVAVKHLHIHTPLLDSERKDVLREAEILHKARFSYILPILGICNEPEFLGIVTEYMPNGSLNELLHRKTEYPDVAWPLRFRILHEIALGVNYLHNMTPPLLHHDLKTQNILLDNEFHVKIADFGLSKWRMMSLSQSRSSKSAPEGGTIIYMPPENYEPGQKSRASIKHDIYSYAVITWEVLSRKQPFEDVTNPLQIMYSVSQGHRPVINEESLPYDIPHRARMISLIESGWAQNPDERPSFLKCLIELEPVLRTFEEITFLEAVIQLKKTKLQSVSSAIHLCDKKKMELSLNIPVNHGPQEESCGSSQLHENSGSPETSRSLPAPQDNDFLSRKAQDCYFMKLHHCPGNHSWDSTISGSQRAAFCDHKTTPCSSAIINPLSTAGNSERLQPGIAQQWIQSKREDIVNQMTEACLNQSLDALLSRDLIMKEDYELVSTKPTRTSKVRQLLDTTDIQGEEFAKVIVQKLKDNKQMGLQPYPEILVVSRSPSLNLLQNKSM
UniProt Q8WVD3: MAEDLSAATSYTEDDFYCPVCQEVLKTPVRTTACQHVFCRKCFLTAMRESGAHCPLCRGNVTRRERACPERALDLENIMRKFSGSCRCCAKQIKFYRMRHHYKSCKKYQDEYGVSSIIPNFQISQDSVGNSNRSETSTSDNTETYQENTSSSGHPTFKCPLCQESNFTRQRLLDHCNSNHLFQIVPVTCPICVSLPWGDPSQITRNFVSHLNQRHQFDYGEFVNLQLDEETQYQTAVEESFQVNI
UniProt Q9BWE0: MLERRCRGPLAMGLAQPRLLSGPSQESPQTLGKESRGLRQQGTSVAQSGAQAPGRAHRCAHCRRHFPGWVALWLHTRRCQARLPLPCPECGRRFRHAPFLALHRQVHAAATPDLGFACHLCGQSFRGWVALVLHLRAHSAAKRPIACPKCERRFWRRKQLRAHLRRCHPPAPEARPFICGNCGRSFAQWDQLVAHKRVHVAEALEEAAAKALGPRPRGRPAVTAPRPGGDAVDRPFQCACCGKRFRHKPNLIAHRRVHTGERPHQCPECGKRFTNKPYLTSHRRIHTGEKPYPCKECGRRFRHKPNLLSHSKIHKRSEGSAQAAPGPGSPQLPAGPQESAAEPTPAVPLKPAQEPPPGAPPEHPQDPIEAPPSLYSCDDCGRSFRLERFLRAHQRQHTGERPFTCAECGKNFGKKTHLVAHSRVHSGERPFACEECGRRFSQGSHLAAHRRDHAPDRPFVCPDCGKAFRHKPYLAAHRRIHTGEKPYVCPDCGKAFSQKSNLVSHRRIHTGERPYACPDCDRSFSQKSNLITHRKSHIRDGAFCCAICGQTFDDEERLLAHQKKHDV
UniProt Q9H4X1: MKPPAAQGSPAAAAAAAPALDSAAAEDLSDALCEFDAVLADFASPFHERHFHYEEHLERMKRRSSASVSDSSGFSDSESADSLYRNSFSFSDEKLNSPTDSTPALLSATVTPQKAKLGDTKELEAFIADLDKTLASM
UniProt Q9NPQ8: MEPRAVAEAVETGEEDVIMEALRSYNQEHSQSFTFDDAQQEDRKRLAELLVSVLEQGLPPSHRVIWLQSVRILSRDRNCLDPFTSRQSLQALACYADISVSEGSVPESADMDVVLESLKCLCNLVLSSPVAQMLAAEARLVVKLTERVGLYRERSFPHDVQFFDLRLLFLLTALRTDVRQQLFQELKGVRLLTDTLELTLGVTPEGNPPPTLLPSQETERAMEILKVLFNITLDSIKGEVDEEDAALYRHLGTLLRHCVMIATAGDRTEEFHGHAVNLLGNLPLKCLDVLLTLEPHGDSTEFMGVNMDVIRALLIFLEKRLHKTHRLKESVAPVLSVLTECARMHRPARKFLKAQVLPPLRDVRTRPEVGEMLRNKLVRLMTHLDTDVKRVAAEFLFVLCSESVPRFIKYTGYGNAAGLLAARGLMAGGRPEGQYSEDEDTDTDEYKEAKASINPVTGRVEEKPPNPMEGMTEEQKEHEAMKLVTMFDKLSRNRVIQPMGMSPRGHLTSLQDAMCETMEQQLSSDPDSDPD
UniProt Q9H0Z9: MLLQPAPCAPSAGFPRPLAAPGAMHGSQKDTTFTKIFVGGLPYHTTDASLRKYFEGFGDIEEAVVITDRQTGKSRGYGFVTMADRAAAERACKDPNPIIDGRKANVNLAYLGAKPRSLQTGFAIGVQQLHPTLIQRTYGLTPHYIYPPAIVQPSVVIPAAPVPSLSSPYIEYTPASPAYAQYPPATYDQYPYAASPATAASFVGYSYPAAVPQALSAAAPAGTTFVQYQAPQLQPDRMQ
UniProt Q96TC7: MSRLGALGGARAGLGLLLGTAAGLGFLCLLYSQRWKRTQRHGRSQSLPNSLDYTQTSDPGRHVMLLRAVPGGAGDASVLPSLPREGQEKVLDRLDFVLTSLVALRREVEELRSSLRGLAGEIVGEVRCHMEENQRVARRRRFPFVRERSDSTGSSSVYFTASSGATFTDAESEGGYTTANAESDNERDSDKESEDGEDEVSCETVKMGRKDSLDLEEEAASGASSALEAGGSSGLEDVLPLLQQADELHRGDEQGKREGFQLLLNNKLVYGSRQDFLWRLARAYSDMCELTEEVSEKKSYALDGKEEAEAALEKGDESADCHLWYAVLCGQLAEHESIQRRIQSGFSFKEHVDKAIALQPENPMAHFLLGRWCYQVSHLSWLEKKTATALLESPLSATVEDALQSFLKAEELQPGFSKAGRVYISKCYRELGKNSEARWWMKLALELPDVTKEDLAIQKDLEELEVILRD
UniProt O75792: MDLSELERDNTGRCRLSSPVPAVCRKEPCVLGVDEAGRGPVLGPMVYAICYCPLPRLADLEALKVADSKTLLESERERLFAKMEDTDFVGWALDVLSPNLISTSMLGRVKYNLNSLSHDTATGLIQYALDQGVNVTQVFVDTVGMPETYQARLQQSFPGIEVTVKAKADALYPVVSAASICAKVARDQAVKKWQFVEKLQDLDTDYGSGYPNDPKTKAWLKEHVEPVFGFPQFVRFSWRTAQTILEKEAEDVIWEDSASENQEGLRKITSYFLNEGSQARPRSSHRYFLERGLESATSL
UniProt Q86VR2, whole entry, looked up: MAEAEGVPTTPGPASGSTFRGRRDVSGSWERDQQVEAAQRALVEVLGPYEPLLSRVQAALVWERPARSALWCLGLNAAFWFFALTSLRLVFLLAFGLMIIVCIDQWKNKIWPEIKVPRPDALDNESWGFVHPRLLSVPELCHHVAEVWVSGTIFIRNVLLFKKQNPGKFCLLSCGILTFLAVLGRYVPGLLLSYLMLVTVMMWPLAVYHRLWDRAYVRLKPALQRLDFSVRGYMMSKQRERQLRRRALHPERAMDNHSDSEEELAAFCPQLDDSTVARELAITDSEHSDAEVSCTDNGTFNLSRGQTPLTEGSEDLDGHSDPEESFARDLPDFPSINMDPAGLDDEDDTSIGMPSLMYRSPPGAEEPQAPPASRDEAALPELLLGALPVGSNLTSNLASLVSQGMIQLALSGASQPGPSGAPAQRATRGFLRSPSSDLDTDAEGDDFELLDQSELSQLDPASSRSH
UniProt Q02094: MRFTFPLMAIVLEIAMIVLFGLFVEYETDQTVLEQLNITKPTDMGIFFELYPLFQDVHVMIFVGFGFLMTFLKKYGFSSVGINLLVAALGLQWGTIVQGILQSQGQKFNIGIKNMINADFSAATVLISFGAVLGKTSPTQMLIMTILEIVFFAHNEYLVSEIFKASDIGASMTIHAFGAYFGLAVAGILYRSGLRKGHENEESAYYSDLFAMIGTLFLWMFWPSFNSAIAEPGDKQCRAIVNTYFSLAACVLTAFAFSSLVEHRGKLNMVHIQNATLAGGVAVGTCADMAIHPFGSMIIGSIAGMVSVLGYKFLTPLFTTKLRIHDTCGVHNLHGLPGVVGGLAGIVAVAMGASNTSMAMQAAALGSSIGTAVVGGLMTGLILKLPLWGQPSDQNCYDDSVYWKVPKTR
UniProt P52758: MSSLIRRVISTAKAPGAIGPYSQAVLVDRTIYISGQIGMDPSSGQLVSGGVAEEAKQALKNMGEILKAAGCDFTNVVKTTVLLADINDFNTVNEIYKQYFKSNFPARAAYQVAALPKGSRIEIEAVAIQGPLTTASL
UniProt Q9Y3B8: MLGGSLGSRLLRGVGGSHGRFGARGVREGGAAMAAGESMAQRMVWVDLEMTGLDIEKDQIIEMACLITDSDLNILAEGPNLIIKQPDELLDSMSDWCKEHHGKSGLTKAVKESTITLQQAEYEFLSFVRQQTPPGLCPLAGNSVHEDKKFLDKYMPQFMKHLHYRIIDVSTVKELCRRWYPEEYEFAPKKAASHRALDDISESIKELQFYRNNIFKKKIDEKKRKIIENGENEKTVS
UniProt Q5XPI4: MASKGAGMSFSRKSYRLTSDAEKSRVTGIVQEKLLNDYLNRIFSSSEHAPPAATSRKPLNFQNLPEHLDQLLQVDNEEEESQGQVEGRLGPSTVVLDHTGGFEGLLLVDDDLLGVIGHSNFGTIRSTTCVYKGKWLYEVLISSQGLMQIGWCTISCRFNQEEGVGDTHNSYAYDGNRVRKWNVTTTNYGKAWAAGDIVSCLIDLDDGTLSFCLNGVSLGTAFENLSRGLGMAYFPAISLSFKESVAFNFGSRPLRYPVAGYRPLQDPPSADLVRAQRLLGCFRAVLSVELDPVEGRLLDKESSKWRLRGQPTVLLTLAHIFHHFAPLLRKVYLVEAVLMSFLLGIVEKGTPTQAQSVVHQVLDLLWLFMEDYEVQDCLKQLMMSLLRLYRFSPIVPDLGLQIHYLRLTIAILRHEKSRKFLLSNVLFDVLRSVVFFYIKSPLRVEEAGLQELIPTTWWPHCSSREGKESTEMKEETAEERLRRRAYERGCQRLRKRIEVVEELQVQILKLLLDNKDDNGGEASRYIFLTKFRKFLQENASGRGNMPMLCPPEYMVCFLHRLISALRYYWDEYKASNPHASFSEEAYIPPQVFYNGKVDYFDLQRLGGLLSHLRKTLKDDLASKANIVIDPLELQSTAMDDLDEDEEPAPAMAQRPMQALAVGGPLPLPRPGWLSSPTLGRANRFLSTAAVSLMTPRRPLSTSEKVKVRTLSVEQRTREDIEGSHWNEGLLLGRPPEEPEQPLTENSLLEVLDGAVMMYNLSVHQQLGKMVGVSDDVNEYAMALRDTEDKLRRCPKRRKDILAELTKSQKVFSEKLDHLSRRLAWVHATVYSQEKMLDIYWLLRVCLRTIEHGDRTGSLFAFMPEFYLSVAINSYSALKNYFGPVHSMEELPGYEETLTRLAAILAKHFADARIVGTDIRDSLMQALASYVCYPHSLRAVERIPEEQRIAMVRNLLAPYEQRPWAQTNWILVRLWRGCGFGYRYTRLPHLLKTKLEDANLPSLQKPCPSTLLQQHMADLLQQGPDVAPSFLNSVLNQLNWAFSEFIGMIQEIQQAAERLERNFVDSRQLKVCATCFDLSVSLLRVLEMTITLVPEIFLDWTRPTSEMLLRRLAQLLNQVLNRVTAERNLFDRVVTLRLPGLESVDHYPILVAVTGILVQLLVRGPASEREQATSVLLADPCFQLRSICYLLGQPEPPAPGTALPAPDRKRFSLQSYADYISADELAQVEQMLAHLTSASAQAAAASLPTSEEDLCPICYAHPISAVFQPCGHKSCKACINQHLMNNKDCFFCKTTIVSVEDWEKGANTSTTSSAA
UniProt Q9HBH5: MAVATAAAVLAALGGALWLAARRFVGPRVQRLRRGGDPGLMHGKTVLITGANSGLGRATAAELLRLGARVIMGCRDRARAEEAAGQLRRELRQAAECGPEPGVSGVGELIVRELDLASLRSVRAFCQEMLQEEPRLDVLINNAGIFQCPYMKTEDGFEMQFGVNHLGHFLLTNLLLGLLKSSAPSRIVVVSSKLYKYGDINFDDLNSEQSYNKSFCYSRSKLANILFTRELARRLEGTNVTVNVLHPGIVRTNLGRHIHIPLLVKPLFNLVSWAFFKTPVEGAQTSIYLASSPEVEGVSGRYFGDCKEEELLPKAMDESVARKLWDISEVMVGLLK
UniProt P35249, whole entry, looked up: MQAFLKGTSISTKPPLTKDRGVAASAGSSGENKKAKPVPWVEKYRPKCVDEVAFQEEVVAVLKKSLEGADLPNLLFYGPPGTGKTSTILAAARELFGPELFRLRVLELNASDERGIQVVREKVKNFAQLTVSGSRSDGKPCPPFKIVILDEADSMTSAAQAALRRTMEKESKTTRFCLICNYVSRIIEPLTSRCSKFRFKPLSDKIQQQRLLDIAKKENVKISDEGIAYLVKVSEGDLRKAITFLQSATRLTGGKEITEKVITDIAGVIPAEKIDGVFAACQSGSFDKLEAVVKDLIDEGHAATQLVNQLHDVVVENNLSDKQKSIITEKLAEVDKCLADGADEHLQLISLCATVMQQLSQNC

Assays:
Assay in all cases: log2 fold change, soluble protein after heating vs DMSO (PISA); higher = thermal stabilisation; K562 cells, 10 uM, 30 min; active = over 0.2 and 3.5 SD of the protein, either way, in both replicates (recomputed)
[1] = compound: C1=CC=C(C=C1)[C@H](COC2=CC3=C(C=C2)NC(=O)N3)NC(=O)C4=CC=CN(C4=O)CC5=CC(=C(C=C5)F)F
How it was run: (§1)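 Thermal stability values are relative to control samples and come from duplicates. They are expressed as log2 fold changes. For measurement, K562 cells (2×10^6 cells/mL) received 10 μM compound for 30 min, and aliquots were heated for 3 min over 48°C-58°C, pooled, and extracted at 4°C in PBS with 0.5% NP-40. Soluble protein, the supernatant after 21,000xg for 90 min, was quantified by TMTpro 16plex LC-MS/MS with equalised channel sums.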

[2] = compound: CC1=C(SC2=C1C(=N[C@H](C3=NN=C(N32)C)CC(=O)N)C4=CC=C(C=C4)Cl)C
How it was run: as §1

[3] = compound: CC1=C2C(=CC=C1)N=C(N(C2=O)C3=CC=CC=C3C)CN4C=NC5=C(N=CN=C54)N
How it was run: as §1

[4] = compound: Cc1sc2c(c1C)C(c1ccc(Cl)cc1)=N[C@@H](CC(=O)OC(C)(C)C)c1nnc(C)n1-2
How it was run: as §1

[5] = compound: c1ccc([C@@H]2C[C@H]2NC2CCNCC2)cc1
How it was run: as §1

Measured: log2 fold change

RIPK2 (UniProt O43353)
inactive: [1] -0.013 | [2] 0 | [3] -0.003 | [4] 0.004 | [5] -0.055

RNF138 (UniProt Q8WVD3)
inactive: [1] -0.026 | [2] -0.223 | [3] 0.012 | [4] -0.059 | [5] 0.008

RNF214 (UniProt Q8ND24)
inactive: [1] -0.002 | [2] 0.006 | [3] 0.136 | [4] -0.016 | [5] 0.017

RHOT2 (UniProt Q8IXI1)
inactive: [1] 0.025 | [2] 0.032 | [3] 0.093 | [4] -0.009 | [5] -0.081

REPIN1 isoform 4 (UniProt Q9BWE0)
inactive: [1] -0.064 | [2] -0.035 | [3] -0.018 | [4] 0.009 | [5] 0.025

RGCC (UniProt Q9H4X1)
inactive: [1] 0.137

RIOK3 (UniProt O14730)
inactive: [1] -0.015 | [2] -0.008 | [3] -0.016 | [4] -0.008 | [5] 0.024

RIC8A isoform 3 (UniProt Q9NPQ8)
inactive: [1] -0.033 | [2] 0.02 | [3] 0.015 | [4] -0.041 | [5] -0.094

RBM38 (UniProt Q9H0Z9)
inactive: [1] 0.051 | [2] 0.139 | [3] -0.072 | [4] -0.058 | [5] -0.07

RNASEH2C (UniProt Q8TDP1)
inactive: [1] -0.015 | [2] 0.055 | [3] 0.056 | [4] -0.061 | [5] -0.046

RMDN3 (UniProt Q96TC7)
inactive: [1] -0.01 | [2] 0.048 | [3] 0.065 | [4] 0.014 | [5] -0.049

RMND1 (UniProt Q9NWS8)
inactive: [1] 0.035 | [2] 0.073 | [3] 0.101 | [4] -0.015 | [5] -0.008

RFC2 (UniProt P35250)
inactive: [1] -0.019 | [2] 0.039 | [3] 0.005 | [4] -0.005 | [5] -0.015

RNASEH2A (UniProt O75792)
inactive: [1] -0.008 | [2] 0.065 | [3] 0.183 | [4] -0.025 | [5] -0.01

RFC5 (UniProt P40937)
inactive: [1] -0.003 | [2] 0.032 | [3] -0.006 | [4] 0.001 | [5] -0.052

RCN1 (UniProt Q15293)
inactive: [1] 0.02 | [2] 0.024 | [3] 0.04 | [4] -0.021 | [5] 0.007

RBP4 (UniProt P02753)
inactive: [1] -0.118 | [2] -0.125 | [3] 0.029 | [4] 0.152 | [5] 0.187

RCN3 (UniProt Q96D15)
inactive: [1] 0.016 | [2] 0.032 | [3] -0.061 | [4] -0.01 | [5] 0.023

RETREG2 (UniProt Q8NC44)
inactive: [1] 0.04 | [2] 0.045 | [3] -0.131 | [4] 0.014 | [5] -0.046

RCC1 isoform 2 (UniProt P18754)
inactive: [1] -0.175 | [2] 0.096 | [3] 0.176 | [4] 0.012 | [5] -0.058

RNF121 (UniProt Q9H920)
inactive: [1] -0.048 | [2] 0.055 | [3] -0.007 | [4] -0.091 | [5] -0.016

RELA (UniProt Q04206)
inactive: [1] -0.013 | [2] 0.056 | [3] 0.03 | [4] 0.031 | [5] 0.008

RING1 (UniProt Q06587)
inactive: [1] -0.037 | [2] -0.012 | [3] 0.089 | [4] -0.017 | [5] -0.081

RELCH isoform 2 (UniProt Q9P260)
inactive: [1] -0.084 | [2] 0.07 | [3] -0.14 | [4] 0.091 | [5] -0.005

RDX (UniProt P35241)
inactive: [1] -0.016 | [2] -0.003 | [3] -0.023 | [4] 0.002 | [5] 0.017

RHOC (UniProt P08134)
inactive: [1] 0.001 | [2] 0.017 | [3] 0.052 | [4] -0.029 | [5] -0.005

RETREG3 (UniProt Q86VR2)
inactive: [1] 0.076 | [2] 0.085 | [3] 0.007 | [4] -0.046 | [5] -0.037

REEP5 (UniProt Q00765)
inactive: [1] 0.027 | [2] 0.048 | [3] 0.061 | [4] -0.023 | [5] -0.001

RBM4 (UniProt Q9BWF3)
inactive: [1] -0.029 | [2] -0.074 | [3] -0.011 | [4] 0.009 | [5] 0.073

Reprinted at random: 3 records from the list
RFC5 (UniProt P40937)
inactive: [1] -0.003 | [2] 0.032 | [3] -0.006 | [4] 0.001 | [5] -0.052

RNF121 (UniProt Q9H920)
inactive: [1] -0.048 | [2] 0.055 | [3] -0.007 | [4] -0.091 | [5] -0.016

RMND1 (UniProt Q9NWS8)
inactive: [1] 0.035 | [2] 0.073 | [3] 0.101 | [4] -0.015 | [5] -0.008

Following part.

RHAG (UniProt Q02094)
inactive: [1] -0.063 | [2] 0.035 | [3] -0.061 | [4] -0.148 | [5] 0.061

RBM42 (UniProt Q9BTD8)
inactive: [1] 0.049 | [2] -0.186 | [3] -0.065 | [4] 0.057 | [5] 0.024

RHOT1 isoform 3 (UniProt Q8IXI2)
inactive: [1] 0.003 | [2] 0.033 | [3] 0.046 | [4] 0.022 | [5] 0.008

RNF2 (UniProt Q99496)
inactive: [1] 0.067 | [2] 0.014 | [3] 0.153 | [4] 0.064 | [5] 0.085

RGP1 (UniProt Q92546)
inactive: [1] -0.204 | [2] -0.043 | [3] 0.072 | [4] -0.025 | [5] -0.049

RBM8A (UniProt Q9Y5S9)
inactive: [1] -0.02 | [2] -0.005 | [3] -0.062 | [4] 0.029 | [5] 0.045

RIDA (UniProt P52758)
inactive: [1] 0.003 | [2] 0.01 | [3] -0.027 | [4] -0.067 | [5] 0.012

REEP3 (UniProt Q6NUK4)
inactive: [1] -0.052 | [2] 0.015 | [3] 0.041 | [4] 0.006 | [5] 0.043

REXO2 (UniProt Q9Y3B8)
inactive: [1] 0.012 | [2] 0.037 | [3] 0.023 | [4] -0.005 | [5] -0.008

RFFL (UniProt Q8WZ73)
inactive: [1] -0.05 | [2] -0.053 | [3] -0.209 | [4] 0.086 | [5] 0.01

RCSD1 (UniProt Q6JBY9)
inactive: [1] 0.031 | [2] -0.028 | [3] 0.024 | [4] 0.042 | [5] 0.066

RNF123 isoform 2 (UniProt Q5XPI4)
inactive: [1] -0.02 | [2] -0.012 | [3] 0.041 | [4] -0.038 | [5] 0.002

RDH11 (UniProt Q8TC12)
inactive: [1] 0.258 | [2] 0.06 | [3] 0.266 | [4] 0.115 | [5] -0.058

RDH14 (UniProt Q9HBH5)
inactive: [1] 0.128 | [2] 0.139 | [3] 0.038 | [4] 0.01 | [5] -0.037

RNF181 (UniProt Q9P0P0)
inactive: [1] -0.012 | [2] 0.041 | [3] 0.026 | [4] -0.044 | [5] -0.033

RCCD1 (UniProt A6NED2)
inactive: [1] -0.064 | [2] -0.007 | [3] 0.021 | [4] -0.012 | [5] 0.005

RIOX2 (UniProt Q8IUF8)
inactive: [1] -0.008 | [2] 0.031 | [3] 0.013 | [4] 0.054 | [5] -0.21

RFT1 (UniProt Q96AA3)
inactive: [1] 0.008 | [2] 0.025 | [3] 0.034 | [4] -0.034 | [5] 0.083

RENBP (UniProt P51606)
inactive: [1] -0.047 | [2] 0.042 | [3] 0.063 | [4] -0.04 | [5] -0.027

RNASET2 (UniProt O00584)
inactive: [1] 0.037 | [2] -0.038 | [3] 0.063 | [4] -0.013 | [5] 0.012

RNF13 (UniProt O43567)
inactive: [1] -0.003 | [2] -0.18 | [3] 0 | [4] -0.109 | [5] -0.043

RHEB (UniProt Q15382)
inactive: [1] 0.008 | [2] 0.04 | [3] 0.055 | [4] -0.048 | [5] -0.001

RGS10 (UniProt O43665)
inactive: [1] 0.014 | [2] 0.042 | [3] -0.035 | [4] -0.022 | [5] -0.058

RFC4 (UniProt P35249)
inactive: [1] -0.017 | [2] 0.016 | [3] 0.025 | [4] -0.048 | [5] -0.02

RCOR3 isoform 3 (UniProt Q9P2K3)
active: [5] 1.27
inactive: [1] -0.139 | [2] 0.087 | [3] 0.111 | [4] -0.06
